Data reported in PMC12582980.
No constants are given. Whether binding was seen depends on the method and setting. In cells and extracts the contact can be indirect. Some binding calls cover weakened binding; strength is not graded here.

Amino acid sequences for entries named in this document (tags omitted).
UniProt Q92830: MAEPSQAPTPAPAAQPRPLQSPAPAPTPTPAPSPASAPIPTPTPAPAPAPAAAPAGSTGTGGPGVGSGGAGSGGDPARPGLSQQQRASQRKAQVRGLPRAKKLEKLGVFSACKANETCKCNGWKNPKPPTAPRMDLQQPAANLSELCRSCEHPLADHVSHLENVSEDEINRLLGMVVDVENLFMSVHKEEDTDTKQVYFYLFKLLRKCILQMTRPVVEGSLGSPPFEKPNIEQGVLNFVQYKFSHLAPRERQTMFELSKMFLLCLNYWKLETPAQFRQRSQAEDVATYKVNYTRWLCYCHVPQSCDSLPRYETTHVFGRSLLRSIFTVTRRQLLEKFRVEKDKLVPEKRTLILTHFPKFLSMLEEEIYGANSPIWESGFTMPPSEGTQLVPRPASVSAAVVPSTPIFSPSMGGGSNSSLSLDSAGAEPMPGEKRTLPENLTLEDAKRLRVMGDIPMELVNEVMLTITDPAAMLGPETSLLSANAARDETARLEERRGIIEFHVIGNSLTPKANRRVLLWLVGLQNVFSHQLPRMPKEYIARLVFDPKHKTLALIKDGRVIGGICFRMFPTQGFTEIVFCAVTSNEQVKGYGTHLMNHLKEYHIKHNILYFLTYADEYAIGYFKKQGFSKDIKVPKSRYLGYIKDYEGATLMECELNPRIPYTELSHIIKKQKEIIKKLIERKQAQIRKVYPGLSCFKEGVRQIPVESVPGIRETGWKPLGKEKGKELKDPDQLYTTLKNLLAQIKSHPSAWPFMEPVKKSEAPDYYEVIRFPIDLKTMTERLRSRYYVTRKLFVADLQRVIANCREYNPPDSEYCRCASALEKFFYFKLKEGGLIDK
UniProt Q92993: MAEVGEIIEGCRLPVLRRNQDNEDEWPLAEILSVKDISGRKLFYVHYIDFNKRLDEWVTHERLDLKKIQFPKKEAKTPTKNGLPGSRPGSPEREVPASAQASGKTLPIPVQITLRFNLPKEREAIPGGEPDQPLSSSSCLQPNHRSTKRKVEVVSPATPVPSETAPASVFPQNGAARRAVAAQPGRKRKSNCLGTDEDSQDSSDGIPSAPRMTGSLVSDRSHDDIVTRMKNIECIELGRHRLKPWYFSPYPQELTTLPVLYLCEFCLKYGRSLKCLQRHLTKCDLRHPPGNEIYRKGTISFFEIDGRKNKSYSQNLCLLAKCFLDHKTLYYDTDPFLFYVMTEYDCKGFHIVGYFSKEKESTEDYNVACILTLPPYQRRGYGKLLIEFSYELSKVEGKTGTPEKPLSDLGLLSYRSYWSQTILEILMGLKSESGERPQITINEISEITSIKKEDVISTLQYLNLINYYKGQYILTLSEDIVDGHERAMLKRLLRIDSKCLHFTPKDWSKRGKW
UniProt Q92831: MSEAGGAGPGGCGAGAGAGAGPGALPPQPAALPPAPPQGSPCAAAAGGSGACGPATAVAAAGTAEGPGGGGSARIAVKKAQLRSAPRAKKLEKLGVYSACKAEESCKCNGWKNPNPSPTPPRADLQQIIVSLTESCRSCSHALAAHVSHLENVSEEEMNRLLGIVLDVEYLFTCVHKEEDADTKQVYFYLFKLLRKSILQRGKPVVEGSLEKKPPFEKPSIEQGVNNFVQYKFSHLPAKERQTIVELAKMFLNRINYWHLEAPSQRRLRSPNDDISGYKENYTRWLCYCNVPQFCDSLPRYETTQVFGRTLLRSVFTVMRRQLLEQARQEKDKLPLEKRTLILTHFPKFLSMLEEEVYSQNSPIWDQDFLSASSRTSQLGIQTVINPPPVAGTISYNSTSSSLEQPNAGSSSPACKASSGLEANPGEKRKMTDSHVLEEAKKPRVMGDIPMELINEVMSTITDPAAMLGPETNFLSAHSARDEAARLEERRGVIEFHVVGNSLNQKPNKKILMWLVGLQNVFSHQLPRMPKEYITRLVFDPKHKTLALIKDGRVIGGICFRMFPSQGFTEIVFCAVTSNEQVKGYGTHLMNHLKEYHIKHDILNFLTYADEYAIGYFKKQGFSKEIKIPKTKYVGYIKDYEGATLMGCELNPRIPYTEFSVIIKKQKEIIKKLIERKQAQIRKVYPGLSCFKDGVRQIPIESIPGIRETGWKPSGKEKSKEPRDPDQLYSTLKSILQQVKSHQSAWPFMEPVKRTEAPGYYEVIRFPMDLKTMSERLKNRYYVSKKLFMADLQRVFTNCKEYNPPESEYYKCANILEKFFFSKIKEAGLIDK
UniProt Q02548: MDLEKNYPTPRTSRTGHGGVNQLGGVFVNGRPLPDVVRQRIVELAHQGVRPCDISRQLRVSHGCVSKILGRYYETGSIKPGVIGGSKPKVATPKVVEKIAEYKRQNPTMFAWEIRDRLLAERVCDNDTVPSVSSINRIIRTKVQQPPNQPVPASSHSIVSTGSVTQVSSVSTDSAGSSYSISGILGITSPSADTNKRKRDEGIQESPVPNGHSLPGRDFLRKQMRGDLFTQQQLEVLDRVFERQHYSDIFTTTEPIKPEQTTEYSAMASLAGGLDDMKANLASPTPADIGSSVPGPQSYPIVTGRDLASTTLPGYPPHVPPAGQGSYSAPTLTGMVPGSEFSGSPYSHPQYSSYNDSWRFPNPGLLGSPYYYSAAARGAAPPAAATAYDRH

Columns and labels:
Assay in all cases: co-IP; performed as in Fig. 2A: HEK293T transfected; lysates; PAX5 and HATs, with or without PAX5-C co-expression (Fig. 3A)
[1] = target: GCN5 (general control of amino acid synthesis 5) (UniProt Q92830)
[2] = target: TIP60 (TAT-interacting protein 60-kD) (UniProt Q92993)
[3] = target: P/CAF (p300/CBP-associated factor) (UniProt Q92831)

binding [1]: binds | binding [2]: binds | binding [3]: binds
Substance: PAX5 (paired box gene 5) (from UniProt Q02548 1-391)
